The text below walks through data of patent US20130345392A1 (Pfizer Inc, priority 2011, published 2013).

The data set is described as follows: Fmoc solid-phase peptide synthesis; Rink amide MBHA; TBTU. The conditions noted are these: whole synthesis.

Take “CTCFTYKDKECVYYCHLDIIWINTPEQTVPYGLSNYRESLRGKR-NH2”: the “final LC-MS purity” value was “approximately 95% purity”.
